PubChem BioAssay AID2685 (National Center for Advancing Translational Sciences (NCATS), 2010)
Some of the results follow. The main result of the screen is listed elsewhere. These columns were measured beside it and carry no call. Most of these compounds were active or inconclusive in the main read-out, so they are no random draw. The note in brackets gives the kind of curve behind each potency; many fits are weak.

Test: qHTS Assay for Lipid Storage Modulators in Drosophila S3 Cells;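 on cell number change: cells counted by Cell Tracker Red CMTPX staining in the red channel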
Settings: BODIPY lipid droplet fluorescence, 18-24 h; for cell number change: measured here: cell count max response, cells fed with added oleic acid
Procedure, shortened: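 Drosophila S3 cells got compounds at several concentrations plus oleic acid (400 uM solution). Laser-scanning cytometry with 488 nm excitation read lipid droplets at 500-530 nm and cells at 575-640 nm. Percent activity was relative to 20 uM Triacsin C.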

[1] = measured here: lipid fluorescence (Fed channel) AC50, cells fed with added oleic acid
[2] = measured here: cell number channel AC50, cells fed with added oleic acid

Q: For `COc1cc2c(cc1NC(=O)c1ccncc1)oc1ccccc12`, which cell number change is on record?
A: -10.3%

Q: What about the AC50 [1] of the same compound?
A: 6.51 µM [rising, single point]

Q: Which cell number change does the source give for `CCC(=O)Nc1ccc(NC(=O)CSc2nnc(-c3ccco3)n2CC)cc1` here?
A: 6.25%

Q: What about the AC50 [1] of the same compound?
A: 0.13 µM [falling, full curve]

Q: Which cell number change does the source give for `CCC(CC)NC(=O)c1cc(OC)c(OC)c(OC)c1` here?
A: 7.24%

Q: Which cell number change does the source give for `COc1ccc(-c2nc(CS(=O)(=O)CC(=O)NCc3ccc(F)cc3)c(C)o2)cc1` here?
A: -9.79%

Q: What about the AC50 [1] of the same compound?
A: 0.13 µM [rising, full curve, poor fit]

Q: For `CCOc1ccc(NC(=O)c2cc3c(=O)n(C)c4ccccc4c3n2C)cc1`, which cell number change is on record?
A: 30.3%

Q: What about the AC50 [2] of the same compound?
A: 29.1 µM [rising, single point]

Q: What about the AC50 [1] of the same compound?
A: 29.1 µM [rising, single point]

Q: For `COC(=O)[C@@H]1CC[C@H](C)[C@@H](c2ccc(C)cc2)N1C(=O)c1ccc(/C=N/O[C@@H](C)CN2CCCCc3nc(C)c(C)cc32)cc1`, which cell number change is on record?
A: -19.4%

Q: And the AC50 [1]?
A: 14.6 µM [falling, single point]

Q: For `Cc1ccc(S(=O)(=O)N2CCN(C(=O)CSc3nnnn3C)CC2)c(C)c1`, which cell number change is on record?
A: 2.8%

Q: What about the AC50 [1] of the same compound?
A: 6.51 µM [falling, single point]

Q: For `O=C(CN1CCN(c2ccc(F)cc2)CC1)Nc1ccc(F)c(F)c1`, which AC50 [2] is on record?
A: 1.84 µM [falling, partial curve]

Q: Which cell number change does the source give for `S=C(Nc1ccc(Cl)cc1Cl)NC1CCN(Cc2ccccc2)CC1` here?
A: -6.68%

Q: And the AC50 [2]?
A: 0.00517 µM [falling, full curve, poor fit]

Q: For `CNS(=O)(=O)c1ccc(N=Cc2c(C)[nH]n(-c3ccc(C)cc3C)c2=O)cc1`, which cell number change is on record?
A: -37.1%

Q: What about the AC50 [1] of the same compound?
A: 25.9 µM [falling, single point]

Q: With `COC(=O)c1cc(C(=O)N2CCN(c3ncccn3)CC2)cc([N+](=O)[O-])c1` as the compound, how does the cell number change read?
A: 16.2%

Q: And the AC50 [1]?
A: 6.51 µM [rising, single point]

Q: Which AC50 [2] does the source give for `O=C1c2ccccc2C(=O)N1CCc1csc(-c2ccc(F)cc2)n1` here?
A: 0.092 µM [rising, full curve, poor fit]

Q: What does the source list for `COc1ccc(-c2c(C(F)(F)F)[nH]n3c(=O)cc(-c4ccccc4)nc23)cc1`?
A: cell number change: -26.3%; AC50 [1]: 16.4 µM [rising, single point]

Q: With `O=C(c1ccco1)N1CCN(Cc2cccc3ccccc23)CC1` as the compound, how does the cell number change read?
A: 8.57%

Q: With `C/C(=N\N1CCCCC1)c1ccccc1O` as the compound, how does the cell number change read?
A: -28.8%

Q: Which cell number change does the source give for `C=CCN(c1ccccc1)S(=O)(=O)c1cccc2cccnc12` here?
A: 1.05%

Q: What about the AC50 [1] of the same compound?
A: 18.4 µM [rising, single point]

Q: Which cell number change does the source give for `CCOc1cc(NC(=O)c2cccs2)c(OCC)cc1NC(=O)CCC(=O)NCc1ccccn1` here?
A: -1.49%

Q: Which cell number change does the source give for `O=C(COc1ccccc1)Nc1cccc(-c2nc3ccccc3[nH]2)c1` here?
A: 4.98%

Q: What about the AC50 [1] of the same compound?
A: 1.64 µM [rising, partial curve, poor fit]

Q: With `CCc1cccc(NS(=O)(=O)c2cccc3cccnc23)c1` as the compound, how does the cell number change read?
A: -29.1%

Q: And the AC50 [1]?
A: 3.66 µM [falling, full curve]

Q: What does the source list for `Cc1nnc(SCC(=O)NC(=O)NC(C)(C)C)n1N`?
A: cell number change: 35.4%; AC50 [2]: 0.184 µM [rising, full curve]; AC50 [1]: 0.326 µM [rising, full curve, poor fit]

Q: With `O=C(NCc1ccc(Cl)cc1)C1CCC(CNS(=O)(=O)c2ccccc2)CC1` (centres undefined) as the compound, how does the cell number change read?
A: 228%

Q: For `Cc1cc(/C=N/NC(=O)c2cccs2)c(C)n1-c1ccccc1`, which cell number change is on record?
A: 5.75%

Q: And the AC50 [1]?
A: 6.51 µM [rising, single point]

Q: What does the source list for `CCOC(=O)CC1(NC(=O)C2CCC(=O)N(CCc3ccc(OC)cc3)C2)CCCCC1` (centres undefined)?
A: cell number change: -22.9%; AC50 [1]: 29.1 µM [falling, single point]

Q: With `CC(C)(C)N1CC23CCC(C[C@@H]2C1=O)O3` (some centres undefined) as the compound, how does the cell number change read?
A: -14.4%

Q: Which results are given for `CC(=O)Nc1ccccc1N(C)S(=O)(=O)c1ccc(C)cc1`?
A: cell number change: -20.4%; AC50 [1]: 0.103 µM [falling, full curve, poor fit]

Q: For `Cc1cc(NS(=O)(=O)c2ccc(NC(=O)c3ccc(Cl)cc3Cl)cc2)no1`, which cell number change is on record?
A: -23.8%

Q: For `Cc1cc(NC(=O)c2cccc(S(=O)(=O)N3CCCCCC3)c2)n(-c2ccccn2)n1`, which cell number change is on record?
A: -0.735%

Q: Which cell number change does the source give for `CCc1ccc(N2C(=O)CC(c3ccc(F)cc3)C3=C2COC3=O)cc1` (centres undefined) here?
A: 46.6%

Q: And the AC50 [2]?
A: 29.1 µM [rising, single point]

Q: With `CC(C)CCOc1ccc(Cl)cc1CN1CCOCC1` as the compound, how does the cell number change read?
A: -3.18%

Q: What about the AC50 [2] of the same compound?
A: 0.13 µM [falling, full curve, poor fit]

Q: And the AC50 [1]?
A: 20.6 µM [rising, partial curve]

Q: Which cell number change does the source give for `CN(c1ccccc1)S(=O)(=O)c1ccccc1Br` here?
A: 0.614%

Q: What about the AC50 [2] of the same compound?
A: 2.06 µM [falling, single point]

Q: And the AC50 [1]?
A: 1.03 µM [rising, partial curve]

Q: Which results are given for `Cc1oc(-c2cccs2)nc1CS(=O)CC(=O)NCCCN1CC(C)CC(C)C1` (centres undefined)?
A: cell number change: -14.3%; AC50 [1]: 6.51 µM [falling, single point]

Q: Which cell number change does the source give for `CNc1nc(C)cc(C)c1S(=O)(=O)c1ccc(C)cc1` here?
A: 39.4%

Q: What about the AC50 [2] of the same compound?
A: 4.61 µM [rising, full curve, poor fit]

Q: Which cell number change does the source give for `O=C(Nc1cccc(O)c1)c1ccc(C(=O)c2ccccc2)o1` here?
A: 7.9%

Q: With `CC(C)Cn1c(N)c(C(=O)COC(=O)C2CC(=O)N(c3ccc4c(c3)OCCO4)C2)c(=O)n(C)c1=O` (centres undefined) as the compound, how does the cell number change read?
A: -25%

Q: With `Cc1sc2ncnc(N3CCC(C(=O)NNC(=O)COc4ccc(Br)cc4)CC3)c2c1C` as the compound, how does the cell number change read?
A: -16.7%

Q: And the AC50 [1]?
A: 0.00651 µM [falling, full curve, poor fit]

Q: For `CCc1ccc(-c2nc(SCC(=O)NC3CCCC3)n[nH]2)cc1`, which cell number change is on record?
A: -43.6%

Q: For `CC1CCN(C(=O)c2cc3nc(-c4ccccc4)cc(-c4ccccc4)n3n2)CC1`, which cell number change is on record?
A: 4.83%

Q: And the AC50 [2]?
A: 0.411 µM [rising, full curve]

Q: And the AC50 [1]?
A: 0.517 µM [rising, full curve]

Q: With `CN(C)S(=O)(=O)c1cccc(NC(=O)c2ccc(S(=O)(=O)N3CCCCC3)cc2)c1` as the compound, how does the cell number change read?
A: 15%

Q: What about the AC50 [1] of the same compound?
A: 29.1 µM [rising, single point]

Q: Which cell number change does the source give for `CCNC(=O)NNC(=O)C1CC(c2cccs2)=NO1` (centres undefined) here?
A: -32%

Q: What about the AC50 [2] of the same compound?
A: 3.66 µM [falling, full curve]

Q: And the AC50 [1]?
A: 3.66 µM [falling, full curve]

Q: What does the source list for `CCOC(=O)c1c(C)[nH]c(C(=O)COC(=O)CCC(=O)c2ccc3c(c2)OCCO3)c1C`?
A: cell number change: 1.36%; AC50 [1]: 1.46 µM [rising, partial curve, poor fit]

Q: Which results are given for `Cc1cc(C)n2nc(S(=O)(=O)Nc3c(Cl)cccc3Cl)nc2n1`?
A: cell number change: -49.4%; AC50 [2]: 0.92 µM [falling, full curve, poor fit]; AC50 [1]: 3.26 µM [falling, partial curve, poor fit]

Q: Which cell number change does the source give for `Cc1ccc(-c2nnn(CC(=O)N(CC(=O)NC3CCCC3)c3ccccc3F)n2)o1` here?
A: 12.5%

Q: What about the AC50 [1] of the same compound?
A: 14.6 µM [rising, partial curve, poor fit]

Q: Which cell number change does the source give for `Cn1cc(Br)c(C(=O)NNC(=O)Nc2ccccc2C(F)(F)F)n1` here?
A: -11.5%

Q: What about the AC50 [1] of the same compound?
A: 0.82 µM [falling, partial curve, poor fit]

Q: For `CC(NC(=O)CN1C(=O)NC2(CCc3ccccc32)C1=O)c1ccc2c(c1)OCCO2` (centres undefined), which cell number change is on record?
A: 2.39%

Q: Which cell number change does the source give for `Nc1nc(CN2CCN(c3ccccc3)CC2)nc(Nc2ccc(Cl)cc2)n1` here?
A: -9.07%

Q: Which results are given for `C=CCc1cc(C)ccc1OCC(O)CN1CCN(c2ccccc2)CC1` (centres undefined)?
A: cell number change: -82.5%; AC50 [2]: 16.4 µM [falling, partial curve]

Q: With `Cc1ccccc1NS(=O)(=O)c1ccc(N2CCCC2=O)cc1` as the compound, how does the cell number change read?
A: -7.32%

Q: What about the AC50 [1] of the same compound?
A: 0.291 µM [rising, full curve, poor fit]

Q: For `CCOc1ccc(NC(=O)c2ccccc2OCC(=O)c2ccc(C)cc2)cc1`, which cell number change is on record?
A: 4.57%

Q: And the AC50 [1]?
A: 6.51 µM [rising, single point]

Q: Which cell number change does the source give for `COC(=O)c1[nH]c2ccc(Cl)cc2c1NC(=O)c1ccccc1[N+](=O)[O-]` here?
A: -26.1%

Q: What about the AC50 [1] of the same compound?
A: 18.4 µM [falling, single point]

Q: With `Cc1ccc(-c2c(NC(=O)c3ccco3)oc3ccccc3c2=O)cc1` as the compound, how does the cell number change read?
A: -4.48%

Q: What about the AC50 [1] of the same compound?
A: 0.13 µM [rising, full curve, poor fit]

Q: Which cell number change does the source give for `COc1ccc(OC)c(NC(=O)c2cccc(N3C(=O)C4C5C=CC(C6CC56)C4C3=O)c2)c1` (centres undefined) here?
A: -45.9%

Q: What about the AC50 [2] of the same compound?
A: 23.1 µM [falling, partial curve]

Q: And the AC50 [1]?
A: 18.4 µM [falling, partial curve]

Q: With `O=C(COC(=O)c1cc2c(s1)CCC2)Nc1ccc(F)cc1` as the compound, how does the AC50 [1] read?
A: 25.9 µM [rising, single point]

Q: With `Cc1ccc(Nc2nc(-c3ccc(O)cc3O)cs2)nc1` as the compound, how does the cell number change read?
A: -67.5%

Q: And the AC50 [2]?
A: 16.4 µM [falling, single point]

Q: What about the AC50 [1] of the same compound?
A: 20.6 µM [falling, single point]

Q: Which cell number change does the source give for `Cc1ccc2nc(SCC(=O)N3CCC(C)CC3)nc(=O)n2c1` here?
A: -43.6%

Q: And the AC50 [2]?
A: 0.092 µM [falling, full curve, poor fit]

Q: And the AC50 [1]?
A: 0.517 µM [falling, partial curve, poor fit]

Q: Which cell number change does the source give for `COc1cc(S(=O)(=O)N2CCCCCC2)ccc1Cl` here?
A: -8.33%

Q: With `COc1cc(OC)cc(-c2c(-c3cccs3)c3cc(-c4ccc5c(c4)OCO5)ccc3n2C)c1` as the compound, how does the cell number change read?
A: -5.3%

Q: What about the AC50 [2] of the same compound?
A: 0.517 µM [falling, partial curve]

Q: What about the AC50 [1] of the same compound?
A: 0.326 µM [falling, partial curve]

Q: For `Cc1ccc2ncnc(-c3ccccc3)c2c1`, which cell number change is on record?
A: 14.4%

Q: Which cell number change does the source give for `S=c1[nH]nc(-c2ccc(Cl)cc2Cl)n1-c1ccccc1` here?
A: 23.5%

Q: What about the AC50 [1] of the same compound?
A: 6.51 µM [rising, single point]

Q: With `Cc1ccc(NS(=O)(=O)c2ccc(C(=O)N3CCN(S(=O)(=O)c4ccccc4)CC3)cc2)cc1` as the compound, how does the cell number change read?
A: -37.2%

Q: What about the AC50 [2] of the same compound?
A: 20.6 µM [falling, partial curve, poor fit]

Q: What about the AC50 [1] of the same compound?
A: 3.26 µM [falling, partial curve]

Q: For `C=CCOc1cccc(CNCc2ccncc2)c1`, which cell number change is on record?
A: 23.5%

Q: For `CNC(=O)c1cc(NC(=O)CCn2nc(-c3ccc(C)cc3)c3ccccc3c2=O)ccc1OC`, which cell number change is on record?
A: 19.1%
